The target of assay [1] is human PD-1 extracellular domain (crystal structure construct) (human) (UniProt Q15116). The assay can be described thus: crystal structure, 1.8 Å.
The target is the same in assay [2]. Description: crystal structure (figure legend).

Sequences of proteins named here, by UniProt entry; tags and fusion partners are left off. A change or cut given only in a name is not applied to a line headed by its entry.
UniProt Q15116: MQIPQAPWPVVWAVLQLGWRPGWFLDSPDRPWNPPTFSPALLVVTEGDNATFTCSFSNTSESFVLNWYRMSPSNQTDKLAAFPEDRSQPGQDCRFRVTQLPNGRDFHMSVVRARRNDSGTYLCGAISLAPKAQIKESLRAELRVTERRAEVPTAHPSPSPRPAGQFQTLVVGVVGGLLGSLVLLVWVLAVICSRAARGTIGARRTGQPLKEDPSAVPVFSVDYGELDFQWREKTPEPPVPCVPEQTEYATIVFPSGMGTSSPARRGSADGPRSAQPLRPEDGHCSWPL

The record followed here is patent US20180289802A1.

These are yes or no findings as the source states them, for the method shown. Some binding calls cover weakened binding; strength is not graded here.

B1: PD1AB-6 Fab (Fab, V domains shown)
VH: EVQLVQSGAEVKKPGATVKISCKASGFNIKDTYMHWVQQAPGKGLEWMGRIDPANGDRKYDPKFQGRVTITADTSTDTAYMELSSLRSEDTAVYYCARSGPVYYYGSSYVMDYWGQGTTVTVSS
VL: DIVMTQSPDSLAVSLGERATINCKSGQSVLYSSNQKNFLAWYQQKPGQPPKLLIYWASTRESGVPDRFSGSGSGTDFTLTISSLQAEDVAVYYCHQYLYSWTFGQGTKLEIKR
On to B1, for which the binding result in assay [1] and in assay [2] was “binds” each time.
